PubChem BioAssay AID652272 | Drosophila RNAi Screening Center | 2013
Aim: 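Genes whose knock-down decreases or increases Hedgehog reporter output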 (primary screen). Cell system: Drosophila clone 8 (Cl8) cells. Reagent: long dsRNA against Drosophila genes. Read-out: 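Plate reader light from a firefly reporter under a ptc promoter fragment that responds to Hedgehog, with Renilla light as transfection reference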. Direction: firefly Hh reporter signal: higher = more ptc reporter light; Renilla reference signal: higher = more Renilla control light. Active means: 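Hit when the z-score averaged over two replicates is under -2 or over +3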. Calls: active = hit: reporter lowered or raised; inactive = not a hit.
The deposit covers about 21,000 reagents; shown is a random part of those that have a named target and a result. Over the whole deposit, 503 (2.4%) are marked active. 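Raw plate light values, not normalised; calls rest on replicate z-scores that were not deposited; hits include reporter decreases as well as increases.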 Entries without a mark were called inactive. Not stated in the record: the amount of reagent, the time to read-out.

Depletion of CG32087 (GeneID 39323) [DRSC10806] came out at: firefly Hh reporter signal, replicate 1 = 51468; firefly Hh reporter signal, replicate 2 = 50188; firefly Hh reporter signal, replicate 3 = 49600; Renilla reference signal, replicate 1 = 4661; Renilla reference signal, replicate 2 = 3399. After knock-down of CG9029 (GeneID 33815) [DRSC03129], the screen gave firefly Hh reporter signal, replicate 1 = 1.19e5; firefly Hh reporter signal, replicate 2 = 76050; Renilla reference signal, replicate 1 = 3424; Renilla reference signal, replicate 2 = 7717. Depletion of Noc3 (GeneID 40870) [DRSC12535] came out at: firefly Hh reporter signal, replicate 1 = 62064; firefly Hh reporter signal, replicate 2 = 39353; Renilla reference signal, replicate 1 = 3141; Renilla reference signal, replicate 2 = 1993. CG13083 (GeneID 35230) [DRSC02187] scored firefly Hh reporter signal, replicate 1 = 75792; firefly Hh reporter signal, replicate 2 = 40516; Renilla reference signal, replicate 1 = 1812; Renilla reference signal, replicate 2 = 3328. skd (GeneID 43906) [DRSC11898] gave firefly Hh reporter signal, replicate 1 = 82242; firefly Hh reporter signal, replicate 2 = 1.01e5; Renilla reference signal, replicate 1 = 2903; Renilla reference signal, replicate 2 = 3414. Depletion of Sin1 (GeneID 36604) [DRSC05965] came out at: firefly Hh reporter signal, replicate 1 = 1.04e5; firefly Hh reporter signal, replicate 2 = 66809; Renilla reference signal, replicate 1 = 4928; Renilla reference signal, replicate 2 = 2928.

Against Cep164 (GeneID 32563) [DRSC20163], the entry reads firefly Hh reporter signal, replicate 1 = 67520; firefly Hh reporter signal, replicate 2 = 1.76e5; Renilla reference signal, replicate 1 = 2412; Renilla reference signal, replicate 2 = 9239. With knock-down of mTerf3 (GeneID 40279) [DRSC11759] the results were firefly Hh reporter signal, replicate 1 = 1.40e5; firefly Hh reporter signal, replicate 2 = 1.01e5; Renilla reference signal, replicate 1 = 5290; Renilla reference signal, replicate 2 = 4557. With knock-down of CG17272 (GeneID 42465) [DRSC15211], the screen gave firefly Hh reporter signal, replicate 1 = 4.35e5 (active); firefly Hh reporter signal, replicate 2 = 63389; Renilla reference signal, replicate 1 = 28752; Renilla reference signal, replicate 2 = 6618.

Copied from the entries so far (2 entries):
CG9029 (GeneID 33815) [DRSC03129] → firefly Hh reporter signal, replicate 1 = 1.19e5; firefly Hh reporter signal, replicate 2 = 76050; Renilla reference signal, replicate 1 = 3424; Renilla reference signal, replicate 2 = 7717
Noc3 (GeneID 40870) [DRSC12535] → firefly Hh reporter signal, replicate 1 = 62064; firefly Hh reporter signal, replicate 2 = 39353; Renilla reference signal, replicate 1 = 3141; Renilla reference signal, replicate 2 = 1993

Additional records:
With knock-down of CG32537 (GeneID 318079) [DRSC20073], the record shows firefly Hh reporter signal, replicate 1 = 1.16e5; firefly Hh reporter signal, replicate 2 = 68387; Renilla reference signal, replicate 1 = 2757; Renilla reference signal, replicate 2 = 1659. Depletion of CG8067 (GeneID 36552) [DRSC07065] gave: firefly Hh reporter signal, replicate 1 = 1.17e5; firefly Hh reporter signal, replicate 2 = 94192; Renilla reference signal, replicate 1 = 5138; Renilla reference signal, replicate 2 = 3868. Knock-down of CG40245 (retired record) (GeneID 3354884) [DRSC21012] gave: firefly Hh reporter signal, replicate 1 = 4.63e5; firefly Hh reporter signal, replicate 2 = 2.09e5; Renilla reference signal, replicate 1 = 24004; Renilla reference signal, replicate 2 = 5001. Knock-down of eff (GeneID 41785) [DRSC16940] resulted in: firefly Hh reporter signal, replicate 1 = 55988 (active); firefly Hh reporter signal, replicate 2 = 53091; Renilla reference signal, replicate 1 = 4533; Renilla reference signal, replicate 2 = 2616. Silencing of Fmr1 (GeneID 37528) [DRSC16674] came out at: firefly Hh reporter signal, replicate 1 = 86624; firefly Hh reporter signal, replicate 2 = 81513; Renilla reference signal, replicate 1 = 2445; Renilla reference signal, replicate 2 = 2248. CG5174 (GeneID 37117) [DRSC06920] gave firefly Hh reporter signal, replicate 1 = 1.48e5; firefly Hh reporter signal, replicate 2 = 1.15e5; Renilla reference signal, replicate 1 = 5738; Renilla reference signal, replicate 2 = 4675.

Knock-down of CG18814 (GeneID 59175) [DRSC10347] resulted in: firefly Hh reporter signal, replicate 1 = 98365; Renilla reference signal, replicate 1 = 2106; Renilla reference signal, replicate 2 = 2971. Silencing of CG15239 (GeneID 31343) [DRSC17972] gave: firefly Hh reporter signal, replicate 1 = 65621; firefly Hh reporter signal, replicate 2 = 1.54e5; Renilla reference signal, replicate 1 = 2121; Renilla reference signal, replicate 2 = 6883. Magi (GeneID 37403) [DRSC04247] gave firefly Hh reporter signal, replicate 1 = 1.00e5; firefly Hh reporter signal, replicate 2 = 78339; Renilla reference signal, replicate 1 = 3757; Renilla reference signal, replicate 2 = 2917. Silencing of Magi (GeneID 37403) [DRSC04451] resulted in: firefly Hh reporter signal, replicate 1 = 1.26e5; firefly Hh reporter signal, replicate 2 = 49980; Renilla reference signal, replicate 1 = 3088; Renilla reference signal, replicate 2 = 1612. After knock-down of CG31454 (GeneID 318744) [DRSC14365], the record shows firefly Hh reporter signal, replicate 1 = 1.11e5; firefly Hh reporter signal, replicate 2 = 2.28e5; Renilla reference signal, replicate 1 = 4573; Renilla reference signal, replicate 2 = 6290. After knock-down of CG16863 (GeneID 34784) [DRSC01892], the screen gave firefly Hh reporter signal, replicate 1 = 87657; firefly Hh reporter signal, replicate 2 = 39922; Renilla reference signal, replicate 1 = 2519; Renilla reference signal, replicate 2 = 4327.
